Experimental data published in patent US20230167198A1 (University of California, published 2023).
Results are given in words; binding and its absence hold for the method and conditions named. Some binding calls cover weakened binding; strength is not graded here.

Protein sequences, listed by entry. Tags and fused reporters are not part of them. Lines headed by an entry give the natural chain unless they say otherwise; changes in a name come on top. Chains listed by the source or under a name are the forms on record and can include a tag or linker. Residues count along the entry.
UniProt P08519: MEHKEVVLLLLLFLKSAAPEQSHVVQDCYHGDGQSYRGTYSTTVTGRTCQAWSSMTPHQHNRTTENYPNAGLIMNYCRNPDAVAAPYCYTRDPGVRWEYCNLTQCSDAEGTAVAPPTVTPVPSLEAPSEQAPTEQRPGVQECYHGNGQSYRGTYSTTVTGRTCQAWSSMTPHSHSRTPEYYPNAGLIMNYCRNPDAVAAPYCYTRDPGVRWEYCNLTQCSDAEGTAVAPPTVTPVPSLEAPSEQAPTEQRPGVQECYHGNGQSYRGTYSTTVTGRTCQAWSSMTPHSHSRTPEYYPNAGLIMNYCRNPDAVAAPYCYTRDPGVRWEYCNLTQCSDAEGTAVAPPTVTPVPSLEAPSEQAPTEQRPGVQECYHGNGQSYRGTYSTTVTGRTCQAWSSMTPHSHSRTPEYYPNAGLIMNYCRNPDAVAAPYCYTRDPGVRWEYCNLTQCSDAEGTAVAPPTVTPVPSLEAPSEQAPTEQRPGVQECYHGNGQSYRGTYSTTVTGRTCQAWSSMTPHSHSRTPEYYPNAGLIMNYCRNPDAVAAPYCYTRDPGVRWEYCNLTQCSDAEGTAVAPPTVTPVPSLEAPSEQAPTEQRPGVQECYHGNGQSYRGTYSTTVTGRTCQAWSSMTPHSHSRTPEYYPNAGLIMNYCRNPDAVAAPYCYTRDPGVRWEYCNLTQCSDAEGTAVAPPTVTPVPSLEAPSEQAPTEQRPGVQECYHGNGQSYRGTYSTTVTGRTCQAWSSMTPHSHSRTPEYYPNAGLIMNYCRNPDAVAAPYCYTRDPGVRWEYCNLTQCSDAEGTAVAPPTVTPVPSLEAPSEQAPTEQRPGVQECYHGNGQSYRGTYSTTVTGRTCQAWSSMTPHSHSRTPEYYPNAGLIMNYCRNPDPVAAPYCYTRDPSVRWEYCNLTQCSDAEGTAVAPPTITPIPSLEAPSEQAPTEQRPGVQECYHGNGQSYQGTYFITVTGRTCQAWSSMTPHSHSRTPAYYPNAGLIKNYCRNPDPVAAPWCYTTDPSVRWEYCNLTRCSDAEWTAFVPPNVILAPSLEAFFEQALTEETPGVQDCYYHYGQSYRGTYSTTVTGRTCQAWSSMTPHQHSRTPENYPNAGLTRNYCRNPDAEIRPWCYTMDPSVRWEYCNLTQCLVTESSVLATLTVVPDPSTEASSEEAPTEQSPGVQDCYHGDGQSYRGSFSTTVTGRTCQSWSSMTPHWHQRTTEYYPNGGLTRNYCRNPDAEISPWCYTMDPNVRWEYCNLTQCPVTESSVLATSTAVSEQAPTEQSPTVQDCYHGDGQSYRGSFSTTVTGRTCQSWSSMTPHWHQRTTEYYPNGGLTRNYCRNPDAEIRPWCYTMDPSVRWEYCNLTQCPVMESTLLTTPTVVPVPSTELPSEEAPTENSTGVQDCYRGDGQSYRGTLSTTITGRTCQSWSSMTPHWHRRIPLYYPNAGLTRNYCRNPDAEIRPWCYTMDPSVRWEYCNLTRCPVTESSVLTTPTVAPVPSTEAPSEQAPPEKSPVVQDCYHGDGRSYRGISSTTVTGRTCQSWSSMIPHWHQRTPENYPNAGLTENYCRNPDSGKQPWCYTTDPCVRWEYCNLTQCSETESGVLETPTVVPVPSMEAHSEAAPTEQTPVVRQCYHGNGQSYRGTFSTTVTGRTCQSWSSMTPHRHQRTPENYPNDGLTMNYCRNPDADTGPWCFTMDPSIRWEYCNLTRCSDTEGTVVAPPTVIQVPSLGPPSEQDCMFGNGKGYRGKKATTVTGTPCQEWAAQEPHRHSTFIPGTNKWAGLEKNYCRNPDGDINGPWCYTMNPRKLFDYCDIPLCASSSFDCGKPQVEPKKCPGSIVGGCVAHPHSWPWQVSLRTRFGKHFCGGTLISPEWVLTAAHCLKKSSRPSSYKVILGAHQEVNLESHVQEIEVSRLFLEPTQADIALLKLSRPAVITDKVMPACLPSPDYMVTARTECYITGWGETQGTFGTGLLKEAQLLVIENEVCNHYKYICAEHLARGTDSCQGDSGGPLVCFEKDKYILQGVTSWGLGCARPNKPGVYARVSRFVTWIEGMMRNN
KIV6-P recombinant apolipoprotein(a) construct: residues 1157-2040 of P08519
KIV7-P recombinant apolipoprotein(a) construct: residues 1263-2040 of P08519
KIV8-P recombinant apolipoprotein(a) construct: residues 1377-2040 of P08519
KIV9-P recombinant apolipoprotein(a) construct: residues 1491-2040 of P08519
17K apolipoprotein(a) construct without the protease domain (P08519, form named): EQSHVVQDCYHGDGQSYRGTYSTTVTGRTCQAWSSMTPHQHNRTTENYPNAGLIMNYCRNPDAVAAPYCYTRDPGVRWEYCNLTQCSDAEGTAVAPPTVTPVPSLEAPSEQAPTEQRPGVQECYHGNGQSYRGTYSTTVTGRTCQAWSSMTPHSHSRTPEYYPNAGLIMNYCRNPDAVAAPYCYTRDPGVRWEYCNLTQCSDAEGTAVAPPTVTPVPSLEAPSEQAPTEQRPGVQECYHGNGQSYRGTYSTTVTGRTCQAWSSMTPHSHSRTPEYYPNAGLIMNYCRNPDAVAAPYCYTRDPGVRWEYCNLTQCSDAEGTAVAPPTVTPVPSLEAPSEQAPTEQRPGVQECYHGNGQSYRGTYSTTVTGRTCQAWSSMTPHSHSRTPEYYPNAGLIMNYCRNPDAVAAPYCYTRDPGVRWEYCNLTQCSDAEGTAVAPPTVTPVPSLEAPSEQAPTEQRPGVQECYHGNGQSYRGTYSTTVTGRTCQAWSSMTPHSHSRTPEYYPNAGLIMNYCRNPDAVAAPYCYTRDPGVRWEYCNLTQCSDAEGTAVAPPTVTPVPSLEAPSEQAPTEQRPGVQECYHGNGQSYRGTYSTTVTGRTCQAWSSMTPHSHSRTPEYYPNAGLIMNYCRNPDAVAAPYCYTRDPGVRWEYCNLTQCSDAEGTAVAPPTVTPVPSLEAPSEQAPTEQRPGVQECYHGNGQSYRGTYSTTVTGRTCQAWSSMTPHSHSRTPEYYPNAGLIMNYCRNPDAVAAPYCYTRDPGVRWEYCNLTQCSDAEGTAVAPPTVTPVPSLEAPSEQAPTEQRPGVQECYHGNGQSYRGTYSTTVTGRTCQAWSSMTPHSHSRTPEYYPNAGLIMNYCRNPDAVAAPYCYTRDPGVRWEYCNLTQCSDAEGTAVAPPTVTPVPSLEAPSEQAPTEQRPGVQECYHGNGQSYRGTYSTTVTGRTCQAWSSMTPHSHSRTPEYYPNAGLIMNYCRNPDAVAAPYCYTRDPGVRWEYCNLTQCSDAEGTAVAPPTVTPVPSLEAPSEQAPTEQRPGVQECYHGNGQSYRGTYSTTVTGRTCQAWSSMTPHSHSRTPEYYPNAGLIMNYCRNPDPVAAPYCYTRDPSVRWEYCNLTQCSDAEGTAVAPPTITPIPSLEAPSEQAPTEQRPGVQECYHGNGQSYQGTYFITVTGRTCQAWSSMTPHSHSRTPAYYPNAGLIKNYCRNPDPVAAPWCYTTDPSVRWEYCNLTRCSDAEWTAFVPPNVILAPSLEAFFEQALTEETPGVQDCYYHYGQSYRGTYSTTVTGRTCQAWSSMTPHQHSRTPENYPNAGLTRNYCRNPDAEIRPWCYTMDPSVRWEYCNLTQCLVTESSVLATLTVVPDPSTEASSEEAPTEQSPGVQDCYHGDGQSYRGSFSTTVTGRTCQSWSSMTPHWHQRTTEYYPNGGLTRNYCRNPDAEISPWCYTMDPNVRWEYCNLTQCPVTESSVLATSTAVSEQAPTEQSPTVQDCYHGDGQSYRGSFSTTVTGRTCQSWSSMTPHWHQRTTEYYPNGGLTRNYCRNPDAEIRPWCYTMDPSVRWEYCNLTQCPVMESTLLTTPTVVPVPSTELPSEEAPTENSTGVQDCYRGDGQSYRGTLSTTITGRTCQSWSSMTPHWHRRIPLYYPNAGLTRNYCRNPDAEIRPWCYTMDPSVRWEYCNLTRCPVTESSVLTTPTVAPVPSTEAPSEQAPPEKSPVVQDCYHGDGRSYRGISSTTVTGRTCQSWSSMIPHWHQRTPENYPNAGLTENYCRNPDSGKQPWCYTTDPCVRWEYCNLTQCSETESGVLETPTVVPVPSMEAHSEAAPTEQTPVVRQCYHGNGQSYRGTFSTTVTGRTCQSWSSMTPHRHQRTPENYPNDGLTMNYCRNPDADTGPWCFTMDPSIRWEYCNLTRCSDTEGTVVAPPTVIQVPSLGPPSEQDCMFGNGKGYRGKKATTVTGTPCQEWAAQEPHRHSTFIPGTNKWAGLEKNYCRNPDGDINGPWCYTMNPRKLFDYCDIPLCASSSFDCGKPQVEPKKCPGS
17K apolipoprotein(a) construct without KV (P08519, form named): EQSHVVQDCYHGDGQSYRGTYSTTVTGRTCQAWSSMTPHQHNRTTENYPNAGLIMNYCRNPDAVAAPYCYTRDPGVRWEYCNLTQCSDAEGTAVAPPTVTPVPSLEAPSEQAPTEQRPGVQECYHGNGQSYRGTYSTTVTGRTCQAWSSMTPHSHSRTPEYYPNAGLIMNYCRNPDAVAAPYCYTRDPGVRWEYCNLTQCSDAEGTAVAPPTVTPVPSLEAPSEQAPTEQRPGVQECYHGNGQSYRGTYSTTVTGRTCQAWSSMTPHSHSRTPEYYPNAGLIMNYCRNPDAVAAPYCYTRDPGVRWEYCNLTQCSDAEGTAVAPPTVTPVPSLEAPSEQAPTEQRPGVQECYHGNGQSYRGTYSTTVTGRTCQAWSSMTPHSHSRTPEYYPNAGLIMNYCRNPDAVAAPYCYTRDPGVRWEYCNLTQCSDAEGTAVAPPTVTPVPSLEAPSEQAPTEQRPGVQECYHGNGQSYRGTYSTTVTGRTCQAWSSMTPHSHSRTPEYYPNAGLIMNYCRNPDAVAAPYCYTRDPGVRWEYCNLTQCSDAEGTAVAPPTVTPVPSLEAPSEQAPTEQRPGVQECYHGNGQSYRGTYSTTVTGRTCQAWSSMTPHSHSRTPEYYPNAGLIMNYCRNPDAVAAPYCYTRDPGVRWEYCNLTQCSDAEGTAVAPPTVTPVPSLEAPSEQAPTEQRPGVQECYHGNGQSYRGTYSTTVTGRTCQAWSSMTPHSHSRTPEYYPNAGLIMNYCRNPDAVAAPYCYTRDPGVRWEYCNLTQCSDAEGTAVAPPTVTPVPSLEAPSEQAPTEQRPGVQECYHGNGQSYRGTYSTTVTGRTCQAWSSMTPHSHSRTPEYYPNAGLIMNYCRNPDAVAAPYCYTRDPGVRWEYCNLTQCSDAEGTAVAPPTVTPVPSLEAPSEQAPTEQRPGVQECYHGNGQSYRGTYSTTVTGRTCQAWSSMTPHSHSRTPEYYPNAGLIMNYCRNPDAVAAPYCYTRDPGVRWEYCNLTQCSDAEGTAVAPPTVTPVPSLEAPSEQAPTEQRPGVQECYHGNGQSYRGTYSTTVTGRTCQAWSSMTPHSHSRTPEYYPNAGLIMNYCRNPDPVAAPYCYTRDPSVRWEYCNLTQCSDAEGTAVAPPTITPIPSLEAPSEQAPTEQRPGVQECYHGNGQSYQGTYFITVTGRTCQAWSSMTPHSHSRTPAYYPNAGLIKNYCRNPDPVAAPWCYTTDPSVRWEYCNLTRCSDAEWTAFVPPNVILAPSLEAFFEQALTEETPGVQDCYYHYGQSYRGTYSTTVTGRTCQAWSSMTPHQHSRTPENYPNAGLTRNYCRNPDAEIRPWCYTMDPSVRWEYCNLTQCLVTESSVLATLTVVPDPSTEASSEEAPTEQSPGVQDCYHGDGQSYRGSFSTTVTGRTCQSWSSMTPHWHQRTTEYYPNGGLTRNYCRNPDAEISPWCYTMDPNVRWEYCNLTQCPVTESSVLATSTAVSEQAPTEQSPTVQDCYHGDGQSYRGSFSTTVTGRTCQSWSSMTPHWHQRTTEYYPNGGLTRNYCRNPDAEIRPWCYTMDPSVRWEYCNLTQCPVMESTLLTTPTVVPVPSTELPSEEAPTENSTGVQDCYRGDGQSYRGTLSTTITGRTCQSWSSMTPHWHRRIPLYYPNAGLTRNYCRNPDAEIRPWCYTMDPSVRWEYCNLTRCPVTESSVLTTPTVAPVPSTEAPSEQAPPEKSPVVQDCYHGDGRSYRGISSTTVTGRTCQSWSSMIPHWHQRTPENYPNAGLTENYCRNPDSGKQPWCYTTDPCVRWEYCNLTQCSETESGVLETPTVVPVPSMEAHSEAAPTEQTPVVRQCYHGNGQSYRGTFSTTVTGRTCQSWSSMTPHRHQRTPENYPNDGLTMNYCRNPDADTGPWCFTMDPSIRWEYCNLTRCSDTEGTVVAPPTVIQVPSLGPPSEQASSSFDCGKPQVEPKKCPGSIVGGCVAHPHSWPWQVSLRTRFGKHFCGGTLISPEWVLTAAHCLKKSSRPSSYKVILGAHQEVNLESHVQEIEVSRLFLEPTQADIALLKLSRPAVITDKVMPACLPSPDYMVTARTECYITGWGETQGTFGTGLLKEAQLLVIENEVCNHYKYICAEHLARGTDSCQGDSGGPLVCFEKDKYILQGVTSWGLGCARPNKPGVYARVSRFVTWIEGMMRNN

Key:
[1] = target: T1, Lipoprotein(a) purified from a single donor (human) (UniProt P08519+P04114); experiment: direct chemiluminescent ELISA, purified antibody on Lp(a) coated at 5 ug/ml
[2] = target: KIV8-P recombinant apolipoprotein(a) construct (UniProt P08519); experiment: dot-blot, pattern duplicated by western blot
[3] = target: KIV6-P recombinant apolipoprotein(a) construct (UniProt P08519); experiment: dot-blot, pattern duplicated by western blot
[4] = target: KIV7-P recombinant apolipoprotein(a) construct (UniProt P08519); experiment: dot-blot, pattern duplicated by western blot
[5] = target: 17K apolipoprotein(a) construct without the protease domain (human) (UniProt P08519); experiment: dot-blot, pattern duplicated by western blot
[6] = target: 17K apolipoprotein(a) construct without KV (human) (UniProt P08519); experiment: dot-blot, pattern duplicated by western blot
[7] = target: KIV9-P recombinant apolipoprotein(a) construct (UniProt P08519); experiment: dot-blot, pattern duplicated by western blot
[8] = target: KIV8-P recombinant apolipoprotein(a) construct (UniProt P08519); experiment: dot-blot and reducing western blot
[9] = target: KIV6-P recombinant apolipoprotein(a) construct (UniProt P08519); experiment: dot-blot and reducing western blot
[10] = target: KIV7-P recombinant apolipoprotein(a) construct (UniProt P08519); experiment: dot-blot and reducing western blot
[11] = target: 17K apolipoprotein(a) construct without the protease domain (human) (UniProt P08519); experiment: dot-blot and reducing western blot
[12] = target: T1, Lipoprotein(a) purified from a single donor (human); experiment: dot-blot and reducing western blot
[13] = target: 17K apolipoprotein(a) construct without KV (human) (UniProt P08519); experiment: dot-blot and reducing western blot
[14] = target: KIV9-P recombinant apolipoprotein(a) construct (UniProt P08519); experiment: dot-blot and reducing western blot
[15] = target: T1, Lipoprotein(a) purified from a single donor (human); experiment: ELISA of hybridoma subclones on coated Lp(a)
[16] = target: T1, Lipoprotein(a) purified from a single donor (human); experiment: ELISA of hybridoma conditioned media on coated Lp(a)

Measured: binding

B1: LPA-KIV9 murine monoclonal antibody (antibody, IgG1, V domains shown)
VH: QVQLQQSGAELVRPGASVKLSCKALGYTFTDYELHWLKQTPVHGLEWIGAVHPGSGGSAYNQNFKDKATLTADKSSSTAYMELSSLTSEDSAVYYCTREGPFYWGQGTTLTVSS
VL: DVVMTQTPLSLPVSLGDQASISCRSSQSLVHSNGNAYLHWYLQKPGQSPKLLIYKVSNRFSGVPDRFSGSGSGTNFTLKISRVEAEDLGIYFCSQSTHVPLTFGAGTKLELK
notes: constant regions are not; also called Colony #1; Colony 1
binds: all assays above
